From patent US7125666
These are yes or no findings as the source states them, for the method shown. Some entries that bind do so weakly or less than the wild type.

By UniProt entry, the sequences of proteins in these tests, tags left out. Where a name states a change or a piece, a line headed by the entry shows the natural chain unless it says otherwise.
UniProt Q8NFW1: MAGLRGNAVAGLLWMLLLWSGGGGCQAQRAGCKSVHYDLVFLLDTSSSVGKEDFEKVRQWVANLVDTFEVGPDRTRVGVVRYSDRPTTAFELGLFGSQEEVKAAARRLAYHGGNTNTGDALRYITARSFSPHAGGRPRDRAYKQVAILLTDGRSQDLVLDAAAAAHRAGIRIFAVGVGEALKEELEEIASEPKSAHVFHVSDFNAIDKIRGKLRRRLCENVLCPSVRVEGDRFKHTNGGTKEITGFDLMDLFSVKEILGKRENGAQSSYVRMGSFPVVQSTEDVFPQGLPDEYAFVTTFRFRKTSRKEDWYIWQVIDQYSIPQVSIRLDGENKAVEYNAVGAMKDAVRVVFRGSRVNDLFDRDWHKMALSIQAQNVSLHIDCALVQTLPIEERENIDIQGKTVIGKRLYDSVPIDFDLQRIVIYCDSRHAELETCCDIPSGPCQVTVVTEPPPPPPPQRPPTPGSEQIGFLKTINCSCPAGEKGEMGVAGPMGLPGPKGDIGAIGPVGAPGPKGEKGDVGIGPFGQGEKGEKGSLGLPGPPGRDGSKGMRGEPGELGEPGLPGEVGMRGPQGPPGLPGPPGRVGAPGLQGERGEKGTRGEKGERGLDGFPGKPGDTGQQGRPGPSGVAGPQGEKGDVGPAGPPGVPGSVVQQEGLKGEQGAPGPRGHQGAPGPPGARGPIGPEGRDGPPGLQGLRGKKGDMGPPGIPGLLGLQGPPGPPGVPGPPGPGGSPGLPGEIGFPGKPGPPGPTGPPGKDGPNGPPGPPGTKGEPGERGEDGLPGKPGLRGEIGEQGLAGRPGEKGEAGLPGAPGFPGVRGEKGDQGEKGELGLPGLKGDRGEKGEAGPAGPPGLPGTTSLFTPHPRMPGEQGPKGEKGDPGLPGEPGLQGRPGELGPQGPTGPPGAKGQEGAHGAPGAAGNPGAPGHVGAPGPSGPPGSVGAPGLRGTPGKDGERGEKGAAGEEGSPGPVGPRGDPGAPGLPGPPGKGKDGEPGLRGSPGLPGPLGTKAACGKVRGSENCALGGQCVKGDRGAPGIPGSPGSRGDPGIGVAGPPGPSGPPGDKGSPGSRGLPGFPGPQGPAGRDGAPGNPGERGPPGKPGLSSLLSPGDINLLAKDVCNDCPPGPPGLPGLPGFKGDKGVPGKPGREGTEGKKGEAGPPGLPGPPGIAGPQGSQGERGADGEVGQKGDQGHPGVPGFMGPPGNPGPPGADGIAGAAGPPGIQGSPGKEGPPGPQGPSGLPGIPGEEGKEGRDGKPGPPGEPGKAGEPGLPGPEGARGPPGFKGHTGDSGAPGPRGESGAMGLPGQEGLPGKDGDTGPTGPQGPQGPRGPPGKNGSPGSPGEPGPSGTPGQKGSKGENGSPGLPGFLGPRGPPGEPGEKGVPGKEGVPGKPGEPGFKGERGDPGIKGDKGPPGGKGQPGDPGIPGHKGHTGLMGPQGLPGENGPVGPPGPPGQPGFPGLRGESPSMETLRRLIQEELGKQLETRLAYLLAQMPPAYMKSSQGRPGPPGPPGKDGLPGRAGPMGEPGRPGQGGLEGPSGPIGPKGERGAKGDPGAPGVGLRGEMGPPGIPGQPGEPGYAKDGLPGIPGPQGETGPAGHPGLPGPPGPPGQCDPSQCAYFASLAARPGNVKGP

Molecular target: Full-length recombinant collagen XXII made in 293 cells (human) (UniProt Q8NFW1)
Test: non-reducing SDS-PAGE mobility (self-association)

Substance: Full-length recombinant collagen XXII made in 293 cells (from UniProt Q8NFW1 28-1626)
- binding: binds
